At least one structure is not confirmed: it was looked up by name or label, or the drawing left a doubt.
System: Hela cells
Assay: Metabolic potential (OCR/ECAR, XFp) after co-injection of FCCP and oligomycin, DCA treatment
Type: cell-based
Conditions: 10 mM DCA, 1 hour; stress 0.75 μM FCCP + 1.0 μM oligomycin

O=C(O)C(Cl)Cl [DCA, dichloroacetate]
aerobic metabolic potential relative to control cells: slightly increased
glycolytic potential relative to control cells: decreased
